Source: patent US5880103A, “Immunomodulatory peptides” (President and Fellows of Harvard College, priority 1995, dated 1999)
Not every detail of the peptide structures is certain; ends, links or a residue may be inferred. For some assays here: At least one compound was matched to its structure with a doubt left. Ends that are not written are not given here.

Experiments:
HLA-DR1 [1] = target: T1, HLA-DR1 (Homo sapiens, UniProt P01903+P01911, A100R/D57E/F55L/F60I/F76Y/I96L/L162R/M171V/P40L/Q125E/R42F/V115G/Y59C); test: Competition of synthetic peptides against 125I-labeled HA 307-319 for binding to "empty" HLA-DR1; conditions: for able to compete with HA 307-319 for binding to DR1 (in words): "empty" DR1
T1 construct: made in house; host or cells: Sf9 insect cells

HLA-DR1 [2] = target: T1, HLA-DR1; test: Resistance to SDS-induced α-β chain dissociation of "empty" HLA-DR1 (SDS-PAGE); type: binding

| Compound | Ki (HLA-DR1 [1]; read-out: Ki vs HA 307-319, concentration of test peptide which inhibited 50% of 125I-labeled HA 307-319 binding to "empty" HLA-DR1 produced in Sf9 insect cells, 10 nM labeled peptide, 10 nM HLA-DR1, pH 7.2, 37° C., 85 hours, Ki < 10 nM not accurately determinable) | able to compete with HA 307-319 for binding to DR1 (in words) (HLA-DR1 [1]) | able to confer resistance to SDS-induced chain dissociation of DR1 (in words) (HLA-DR1 [2]) |
| --- | --- | --- | --- |
| YKHTLNQIDSVKVWPRRPT [Bavine Fetuin 56-72] | 66 ± 18 nM | – | – |
| SDLSFSKDWSFYL [β2 m 52-64] | – | Neither | Neither |
| CSCC[C@H](NC(=O)[C@H](CCCNC(=N)N)NC(=O)[C@H](CCSC)NC(=O)[C@H](CCCCN)NC(=O)[C@H](CO)NC(=O)[C@@H](NC(=O)[C@@H]1CCCN1C(=O)[C@H](CCCCN)NC(=O)[C@@H]1CCCN1C(=O)[C@@H]1CCCN1C(=O)[C@H](CCCCN)NC(=O)[C@@H]1CCCN1C(=O)[C@@H](N)CC(C)C)C(C)C)C(=O)N[C@@H](C)C(=O)N[C@H](C(=O)O)[C@@H](C)O [Ii 97-111] | – | Neither | Neither |
